The source of these data is publication PMC8998355, “Diversity-Oriented Synthesis Catalyzed by Diethylaminosulfur-Trifluoride—Preparation of New Antitumor Ecdysteroid Derivatives” (International Journal of Molecular Sciences, 2022).

For this data set, the system named is L5178YMDR cells. The experiment in a line: Combination assay with doxorubicin (checkerboard microplate method, MTT). The data set is classed as cell-based, mouse. On the procedure: Compounds 7, 10, 11, 13, and 14 had sufficient individual antiproliferative properties for their assessment of chemo-sensitizing activity. This was carried out as an antiproliferative assay on L5178YMDR cells in combination with doxorubicin, arranged according to the checkerboard microplate method.
The checkerboard microplate method was used to evaluate the compounds’ interaction with doxorubicin, as described before. Briefly, doxorubicin (2 mg/mL, Teva Pharmaceuticals, Budapest, Hungary) was serially diluted in the horizontal direction (100 µL per well), and the ecdysteroid was subsequently diluted in the vertical direction (50 µL per well). L5178YMDR cells were re-suspended in culture medium and added to each test well in 50 µL to contain 1 × 10^4 cells per well, and 50 µL of medium was added to the medium control wells. The plates were incubated for 72 h at 37 °C in a CO2 incubator and, at the end of the incubation period, the cell growth was determined by MTT assay as described above. Cell viability data were analyzed by the Calcusyn software using the Chou method, and drug interactions were expressed as combination index (CI) values, in which 0 < CI < 1, CI = 1, and CI > 1 refer to synergism, additivity, and antagonism, respectively.

Setting [1] is: drug ratio 46.4:1, with doxorubicin.
Where [2] appears, read: drug ratio 23.2:1, with doxorubicin.
The mark [3] stands for this setting: drug ratio 92.8:1, with doxorubicin.
[4] abbreviates: drug ratio 185.6:1, with doxorubicin.

The structures appear in SMILES notation.

As for `CC(=O)[C@H]1CC[C@@]2(F)C3=CC(=O)[C@@H]4C[C@H]5OC(C)(C)O[C@H]5C[C@]4(C)C3=CC[C@]12C` [Compound 7], the “m (slope of the median-effect plot)” value by setting is: (drug ratio 11.6:1, with doxorubicin) 2.18; (drug ratio 23.1:1, with doxorubicin) 1.32; under setting [1], 2.64.
`CC(=O)[C@H]1CC=C2C3=CC(=O)[C@@H]4C[C@H]5OC(C)(C)O[C@H]5C[C@]4(C)[C@H]3CC[C@@]21C` [Compound 10]: the “m (slope of the median-effect plot)” value under setting [2] came to 2.20, the “m (slope of the median-effect plot)” value under setting [1] came to 2.76, the “m (slope of the median-effect plot)” value under setting [3] stood at 2.14 and the “m (slope of the median-effect plot)” value under setting [4] is recorded as 2.37.
Regarding `CC(=O)[C@H]1CC[C@@]2(F)C3=CC(=O)[C@@H]4C[C@H]5OC(C)(C)O[C@H]5C[C@]4(C)[C@H]3CC[C@]12C` [Compound 11], the “m (slope of the median-effect plot)” value worked out at 2.43 under setting [2]; 3.07 under setting [1]; 3.42 under setting [3]; 3.51 under setting [4]; 3.27 (drug ratio 371.2:1, with doxorubicin).
On to `CC(=O)N[C@H]1CC=C2C3=CC(=O)[C@@H]4C[C@H]5OC(C)(C)O[C@H]5C[C@]4(C)[C@H]3CC[C@@]21C` [Compound 13], for which the “m (slope of the median-effect plot)” value runs as follows: under setting [2], 2.65; under setting [1], 4.18; under setting [3], 2.60; under setting [4], 2.54.
Taken in the same sequence, the figures for `CC(=O)N[C@H]1CC[C@@]2(F)C3=CC(=O)[C@@H]4C[C@H]5OC(C)(C)O[C@H]5C[C@]4(C)[C@H]3CC[C@]12C` [Compound 14] were 1.78, 1.99, 1.99 and 1.65.
